Assay results reported in patent US20230106238A1, “PHARMACEUTICAL COMPOSITION FOR PREVENTING OR TREATING NK/T-CELLLYMPHOMA OR NK-CELL LEUKEMIA, COMPRISING PHOSPHODIESTERASE TYPE 5 INHIBITOR” (SAMSUNG LIFE PUBLIC WELFARE FOUNDATION, priority 2020, published 2023).
At least one compound was matched to its structure with a doubt left.

Legend:
Type in all cases: cell-based
[1] = system: Epstein-Barr virus (EBV) reactivation in NK/T-cell lymphoma cell line SNK6; assay: EBV reactivation by romidepsin in SNK6 cells (real-time PCR of BZLF1/BRLF1 mRNA, EBV copy number); conditions: for BRLF1 mRNA expression / BZLF1 mRNA expression: SNK6 cell line
Description: (§1) The NK/T-cell lymphoma cell line SNK6 (source; Seoul National University) and the NK-cell leukemia cell line NK92MI (source; Seoul National University) were treated with the HDAC inhibitor, romidepsin 10 nM, and the PDE5 inhibitor, sildenafil 100 nM, for 24, 48, and 72 hours. After treatment, cells were harvested […]. Then, RNA was extracted using TRIzol reagent (Ambion, Life technologies), cDNA synthesis was performed using Omniscript RT kit (Qiagen), and the expression of BZLF1, an mRNA expressed during EBV reactivation, was identified through real-time PCR. The group treated with DMSO only was used as a control group.
(§2) BZLF1 mRNA expression was measured in the same manner as in Example 1, with a group treated with sildenafil alone and a group treated with 10 nM of romidepsin simultaneously at a concentration of sildenafil of 10, 100 or 1000 nM in SNK6 and NK92MI cells as experimental groups. The treatment time was 72 hours.
The inhibition of EBV reactivation by sildenafil (100 nM, 72 hours), which was shown by treatment with 10 nM of romidepsin in SNK6 and NK92MI cell lines for 72 hours, was measured through EBV copy number, BALF5, BZLF1, and BRLF1 expression. In addition, cell growth was measured by counting live cells through trypan blue staining. BALF5 is a gene with the function of generating viral DNA produced through EBV reactivation. DNA was extracted from the medium using QIAamp DNA mini kit (Qiagen) and real-time quantitative PCR was performed to measure […]. […] The results of measuring the number of EBV copies in the SNK6 cells identified as described above are shown in FIG. 5A, the expression of BZLF1 mRNA is shown in FIG. 5B, the expression of BRLF1 mRNA is shown in FIG. 5C, and the survival rate of tumor cells is shown in FIG. 5D. In addition, the expression of BRLF5 mRNA in NK92MI cells is shown in FIG. 6A, the expression of BZLF1 mRNA is shown in FIG. 6B, the expression of BRLF1 mRNA is shown in FIG. 6C, and the survival rate of tumor cells is shown in FIG. 6D.
BZLF1 and BRLF1 mRNA expressions were identified and measured by qPCR in the same manner as in Example 3.1 that EBV reactivation, which was shown by treatment of 10 nM of romidepsin in the SNK6 cell line, was inhibited by the PDE5 inhibitors of vardenafil, udenafil or tadalafil. In this connection, vardenafil was treated with 100 nM for 72 hours, udenafil was treated with 100 nM for 48 hours, and tadalafil was treated with 1000 nM for 24 hours. The expression of BZLF1 mRNA in the vardenafil-administered group is shown in FIG. 7A, and the expression of BRLF1 mRNA is shown in FIG. 7B. In addition, the expression of BZLF1 mRNA in the udenafil-administered experimental group is shown in FIG. 7C, and the expression of BRLF1 mRNA is shown in FIG. 7D. In addition, the expression of BZLF1 mRNA in the tadalafil-administered experimental group is shown in FIG. 7E, and the expression of BRLF1 mRNA is shown in FIG. 7F.

[2] = system: Epstein-Barr virus (EBV) reactivation in NK-cell leukemia cell line NK92MI; assay: EBV reactivation by romidepsin in NK92MI cells (real-time PCR of BZLF1/BRLF1/BALF5); conditions: romidepsin 10 nM alone, compared to DMSO control group
Description: as §1, §2
The inhibition of EBV reactivation by sildenafil (100 nM, 72 hours), which was shown by treatment with 10 nM of romidepsin in SNK6 and NK92MI cell lines for 72 hours, was measured through EBV copy number, BALF5, BZLF1, and BRLF1 expression. In addition, cell growth was measured by counting live cells through trypan blue staining. BALF5 is a gene with the function of generating viral DNA produced through EBV reactivation. […]

[3] = system: Epstein-Barr virus (EBV) reactivation in Daudi cell line (Burkitt's lymphoma); assay: EBV reactivation by romidepsin in Daudi cell line (BZLF1/BRLF1 mRNA, EBV copy number); conditions: romidepsin 1 or 10 nM, 72 hours
Description: EBV-positive cell lines other than SNK6 and NK92MI were collected to identify EBV reactivity by romidepsin and the effect of sildenafil. As EBV-positive cell lines, the Daudi cell line (ATCC, CCL-213) and Raji cell line (ATCC, CCL-86), which are Burkitt's lymphoma cells, and the 1A2 cell line (ATCC, CRL-8119), which is a lymphoma cell, were treated with 1 or 10 nM of romidepsin for 72 hours, and mRNA expression of BZLF1 and BRLF1, genes whose expression is increased in EBV reactivation, was identified. The results for BZLF1 mRNA expression of the Daudi cell line are shown in FIG. 3A, and the results for BRLF1 mRNA expression are shown in FIG. 3B. […]
When sildenafil and romidepsin were simultaneously treated in the Daudi cell line, which is a cell line showing EBV reactivation by romidepsin identified in Example 3.1, an experiment was performed to determine whether EBV reactivation by romidepsin was inhibited. […] In order to measure the EBV copy number secreted out of the cell by EBV reactivation, by extracting DNA from the medium and measuring the Ct value by real-time PCR and comparing the same with the reference EBV number, the EBV copy number was measured and shown in FIG. 4A. In the same manner as in Example 3.1, BZLF1 mRNA expression was measured and shown in FIG. 4B, and BRLF1 mRNA was measured and shown in FIG. 4C.

[4] = system: Epstein-Barr virus (EBV) reactivation in Raji cell line (Burkitt's lymphoma); assay: EBV reactivation by romidepsin in Raji cell line (BZLF1/BRLF1 mRNA); conditions: romidepsin 1 or 10 nM, 72 hours
[5] = vardenafil 100 nM for 72 hours with romidepsin 10 nM
[6] = tadalafil 1000 nM for 24 hours with romidepsin 10 nM

In the case of `C/C=C1\NC(=O)[C@H]2CSSCC/C=C/[C@H](CC(=O)N[C@H](C(C)C)C(=O)N2)OC(=O)[C@H](C(C)C)NC1=O` [romidepsin], the “expression of BZLF1 mRNA” value ([1]; SNK6 cells, romidepsin 10 nM alone, compared to DMSO control group) is reported as “increased”, the “expression of BZLF1 mRNA” value [2] is reported as “increased” and the “expression of BRLF1 mRNA” value [3] is reported as “increased”. For the same compound, the “expression of BZLF1 mRNA” value [3] was “increased”, the “expression of BRLF1 mRNA” value [4] was “not increased” and the “expression of BZLF1 mRNA” value [4] was “not increased”.

`CCCc1nc(C)c2c(=O)[nH]c(-c3cc(S(=O)(=O)N4CCN(CC)CC4)ccc3OCC)nn12` [vardenafil] was tested, and the “BRLF1 mRNA expression” value [1, 5] was “decreased” and the “BZLF1 mRNA expression” value [1, 5] was “decreased”.

`CN1CC(=O)N2[C@H](c3ccc4c(c3)OCO4)c3[nH]c4ccccc4c3C[C@@H]2C1=O` [tadalafil] was tested, and the “BRLF1 mRNA expression” value [1, 6] was “decreased” and the “BZLF1 mRNA expression” value [1, 6] was “decreased”.
